# Data published in the supplement of paper PMC10735217.
# Some of the results follow. This data set is noisy: repeats of one test often differ as much as different tests do.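 The human kidney-derived cells carry a stably integrated construct of eight TEAD-binding elements driving luciferase, read by luminescence in a drug-repurposing library screen. A compound counts as a hit when its signal is more than five robust Z scores above the plate mean.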
# Test system: HEK293A TEAD-LUC reporter
# Assay: TEAD-luciferase reporter activity (YAP activation), robust Z score vs plate; higher = stronger YAP/TEAD activation
# Settings: 24 h
SMILES,TEAD-luciferase reporter activity (compound concentration: 200 nM),TEAD-luciferase reporter activity (compound concentration: 2 uM),TEAD-luciferase reporter activity (compound concentration: 10 uM)
CCOC(=O)CC(=O)N1CCSC1COc1ccccc1OC (stereo unspecified) [Moguisteine],inactive: -1.34,inactive: 1.54,inactive: 2.35
CC1(C)S[C@@H]2[C@H](NC(=O)C3(N)CCCCC3)C(=O)N2[C@H]1C(=O)O [ciclacillin],inactive: 0.653,inactive: 2.39,inactive: 2.96
C/N=c1/[nH]cc(-c2ccc3c(=O)c(C(=O)O)cn(C4CC4)c3c2C)cc1C,inactive: 1.58,inactive: 0.115,inactive: -0.149
CC(=O)[C@@]1(O)CCC2C3CCC4=CC(=O)CCC4(C)C3CCC21C (stereo partly specified),inactive: 1.12,inactive: -0.424,inactive: 2.4
CC(=O)NC(CC(=O)O)C(=O)NC(CCC(=O)O)C(=O)O (stereo unspecified),inactive: -1.2,inactive: -0.0933,inactive: 0.501
FC(F)(F)c1ccc2c(c1)N(CCCN1CCN(C34CC5CC(CC(C5)C3)C4)CC1)c1ccccc1S2,inactive: 1.11,inactive: -1.38,inactive: 0.778
O=c1[nH]c(=O)n([C@H]2C[C@H](OCc3ccccc3)[C@@H](CO)O2)cc1C(F)(F)F,inactive: 0.544,inactive: -0.771,inactive: 0.624
COc1cnc(-n2cnc(C)n2)c2c1c(C(=O)C(=O)N1CCN(C(=O)c3ccccc3)CC1)cn2COP(=O)(O)O [Fostemsavir],inactive: -0.832,inactive: -0.999,inactive: 0.845
CCc1cccc(N(C)C(=N)Nc2cccc3ccccc23)c1,inactive: 0.189,inactive: 1.29,inactive: -0.149
CC(C)=CCOc1cc(NC(=O)c2ccccc2C)ccc1Cl,inactive: 0.0687,inactive: 0.578,inactive: -0.634
CC(C)(Oc1ccc(Cl)cc1)C(=O)OC(COC(=O)c1cccnc1)COC(=O)c1cccnc1 [Binifibrate],inactive: -0.523,inactive: -0.946,inactive: 3.44
COC(=O)c1cc(CCc2cc(OC)ccc2OC)ccc1O,inactive: -0.63,inactive: -1.15,inactive: -0.713
O=C1Nc2ccccc2CC12CN(CC1CCCC1)C2,inactive: 2.91,–,inactive: 0.894
CC(=O)N[C@@H](CSC/C=C(\C)CC/C=C(\C)CCC=C(C)C)C(=O)O,inactive: -1.01,–,inactive: 2.26
CC(=O)N[C@@H](CSC/C=C(\C)CC/C=C(\C)CCC=C(C)C)C(=O)O [N-Acetyl-S-farnesyl-L-cysteine],–,inactive: -2.75,–
CCCCCCCCN=c1ccn(CCCCCCCCCCn2ccc(=NCCCCCCCC)cc2)cc1 [octenidine],inactive: 3.43,inactive: 1.26,inactive: -1.39
Oc1cc(O)c2cc(O)c(-c3cc(O)c(O)c(O)c3)[o+]c2c1,inactive: -1.46,inactive: -0.692,inactive: 1.59
COCCCS(=O)(=O)c1ccc(-c2ccc(CCN3CCC[C@@H]3C)cc2)cc1,inactive: -1.02,inactive: 0.27,inactive: -1.32
CCOP(=O)(CCCCCCOc1ccc(Cl)cc1OC)OCC,inactive: 0.222,inactive: -0.71,inactive: 0.815

# A second format for some results above:
SMILES	TEAD-luciferase reporter activity (compound concentration: 200 nM)	TEAD-luciferase reporter activity (compound concentration: 2 uM)	TEAD-luciferase reporter activity (compound concentration: 10 uM)
O=c1[nH]c(=O)n([C@H]2C[C@H](OCc3ccccc3)[C@@H](CO)O2)cc1C(F)(F)F	inactive: 0.544	inactive: -0.771	inactive: 0.624
COc1cnc(-n2cnc(C)n2)c2c1c(C(=O)C(=O)N1CCN(C(=O)c3ccccc3)CC1)cn2COP(=O)(O)O [Fostemsavir]	inactive: -0.832	inactive: -0.999	inactive: 0.845
CCc1cccc(N(C)C(=N)Nc2cccc3ccccc23)c1	inactive: 0.189	inactive: 1.29	inactive: -0.149
CC(C)=CCOc1cc(NC(=O)c2ccccc2C)ccc1Cl	inactive: 0.0687	inactive: 0.578	inactive: -0.634
CC(C)(Oc1ccc(Cl)cc1)C(=O)OC(COC(=O)c1cccnc1)COC(=O)c1cccnc1 [Binifibrate]	inactive: -0.523	inactive: -0.946	inactive: 3.44
COC(=O)c1cc(CCc2cc(OC)ccc2OC)ccc1O	inactive: -0.63	inactive: -1.15	inactive: -0.713
O=C1Nc2ccccc2CC12CN(CC1CCCC1)C2	inactive: 2.91	–	inactive: 0.894
CC(=O)N[C@@H](CSC/C=C(\C)CC/C=C(\C)CCC=C(C)C)C(=O)O	inactive: -1.01	–	inactive: 2.26
CC(=O)N[C@@H](CSC/C=C(\C)CC/C=C(\C)CCC=C(C)C)C(=O)O [N-Acetyl-S-farnesyl-L-cysteine]	–	inactive: -2.75	–

# (cont.)

SMILES,TEAD-luciferase reporter activity (compound concentration: 200 nM),TEAD-luciferase reporter activity (compound concentration: 2 uM),TEAD-luciferase reporter activity (compound concentration: 10 uM)
CCC(C)(C)/N=C(/NC#N)N[C@H]1c2cc(C#N)ccc2OC(C)(C)[C@@H]1O,inactive: 1.4,inactive: -0.379,inactive: -0.798
CN(CC(=O)O)C(=N)N [Creatine],inactive: 0.234,inactive: 1.63,inactive: 1.33
O=C(c1ccc2c(c1)OCO2)N1CCC(N2CCNC2=O)CC1,inactive: 2.76,–,inactive: 2.54
COc1ccc([C@]2(C#N)CC[C@H](C(=O)O)CC2)c2c1OCCO2,inactive: 0.275,inactive: 0.0992,inactive: 0.51
CCC(c1ccccc1)c1noc(CCN(CC)CC)n1 (stereo unspecified),inactive: 0.0654,inactive: -1.51,inactive: -0.372
O=C(O)Cc1ccc2c(c1)C(=O)c1ccccc1CO2 [Isoxepac],inactive: -0.981,inactive: -0.72,inactive: -1.08
CN1CCN(c2ccc(Nc3ncc4cc(C#N)c(=O)n(C5CCCC5)c4n3)cc2)CC1,inactive: 1.25,inactive: -1,inactive: -0.0644
COc1ccc(-c2cc(C(F)F)nn2-c2ccc(S(N)(=O)=O)cc2)cc1F,inactive: -0.417,inactive: 0.00421,inactive: 2.45
O=C(Nc1cccc(O)c1)c1ccc(O)c(O)c1,inactive: 1.62,inactive: 4.29,inactive: -0.0635
CCCCCCCCCCCC(=O)c1ccc(OCC[N+](C)(C)Cc2ccccc2)cc1,inactive: 2.7,inactive: 0.925,inactive: 3.4
CCOC(=O)C(C)=O [Ethyl pyruvate],inactive: -0.717,inactive: -0.741,inactive: 1.1
O=C(CN1C(=O)C2(CCCC2)NC[C@@H]1c1cc(F)cc(F)c1)Nc1ccc2c(c1)C[C@@]1(C2)C(=O)Nc2ncccc21,inactive: -0.483,inactive: 0.853,inactive: 2.3
COc1cc2nccc(Oc3ccc(NC(=O)C4(C(=O)Nc5ccc(F)cc5)CC4)cc3)c2cc1OC [Cabozantinib S-malate],inactive: 0.698,inactive: -1.33,inactive: -0.711
C#Cc1c(Nc2ccc(C#N)cc2F)ncnc1OC1CCN(C(=O)OC(C)C)CC1,inactive: -1.38,inactive: -1.17,inactive: -2.02
COc1ccc(S(=O)(=O)N2CCCC2C(=O)Nc2cc(C)cc(C)c2)cc1 (stereo unspecified),inactive: -1.38,inactive: -0.867,inactive: -0.319
CC(=O)Oc1ccc(Oc2c(I)cc(C(=O)O)cc2I)cc1I,inactive: -0.0643,inactive: -0.57,inactive: -1.25
O=C(CCn1cnc2c(=O)[nH]cnc21)NCCCN1CCCC1=O,inactive: -0.867,inactive: -0.272,inactive: -0.332
C=C(NNC(=S)NNC(=S)Nc1ccccc1Cl)c1ccccn1,inactive: 1.49,inactive: -2.23,inactive: 2.1
